For one molecule, binding results are on record in article PMC7472080.

The assay concerns the target Major Tail Protein (MTP) of lactococcal phage p2 (Lactococcus phage p2). Briefly: negative-staining EM structure; topological model of the resting baseplate built here by fitting crystal structures and a modelled Dit-2 into the earlier nsEM map of the native p2 virion (EMD-1699).

No constants are given. Whether binding was seen depends on the method and setting. A result given as binding can be weak or reduced; the word gives no strength.

B1: distal tail protein (Dit, ORF15) of lactococcal phage p2 (protein, UniProt D3WAD3 2-298)
chain: VRQYKIHTNLDGTDDKVWDVTNGKVRFYQPSNLGLQSTNNIWQSNGIGVMGTRSITQPQIEFKLETFGESLEENYQLMKDFVNDILSKKFVTLEYQTEIFQVYADLALADVTKTEGYGKNGTFSEKITFDIITKWYTYENLTFDKIQNGKVIAGMSKIYGGTAPGNYKYIKGTSYTYYGESDIDRLSRWDIKEEIFSFMGILYPKLPKTPAGVRFLDDIGNEYTAIVFKTEQVQDYILINTDVNDETYQGWKGTTALNLFPVMDFERYRTRIIEKGQMELINLSKAEFKIKRKADFV
Turning to B1, the binding entry is reported as “binds”.
